Laboratory results published in paper PMC4567317.

Legend:
[1] = molecular target: XlnR (Penicillium oxalicum 114-2) (UniProt S7ZQM9); test: two-hybrid; Matchmaker GAL4 two-hybrid system 3; AD-X (pGAD-T7) and BD-X (pGBK-T7) co-transformed into S. cerevisiae AH109; growth on SD plates without Leu, Trp and His (legend: SD/-Ade/-His/-Leu/-Trp)
[2] = molecular target: AmyR (Penicillium oxalicum 114-2) (UniProt S8ASG9); test: as above

| Substance | binding [1] | binding [2] |
| --- | --- | --- |
| AmyR (from UniProt S8ASG9) | binds | – |
| CreA (from UniProt S8B1J6) | binds | – |
| ClrB (from UniProt S7ZK86) | binds | binds |

Results are given in words; binding and its absence hold for the method and conditions named. Binding calls can cover weak binding; strength is not graded here.
